# Experimental data: PubChem BioAssay AID1508600 (Functional Genomics Laboratory (NCATS/FGL), 2020)
# The campaign covered roughly 53,000 sequences. About 3,700 (7%) were called active.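 Rule for the calls: active = gene knockdowns whose robust z-score for IL-1 alpha signal is at least 2 or at most -2, so actives lie on both sides; inactive = the rest.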 The list shows a part of the results.
# Assay: Components of the Cytosolic LPS Sensing Pathway: Gene Identification via Genome-wide siRNA Screen;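 note: robust z of the log signal after scaling to non-targeting control siRNA wells of the plate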
# Details: RAW264.7 macrophages, IL-1a HTRF, actives lie on both sides, screened at 100 nM (by protocol), cells primed 5 h with Pam3CSK4 first
# Procedure, shortened: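 IL-1a HTRF of supernatants after 24 hour LipidA transfection of Pam3CSK4-primed (5 hours) RAW264.7 cells, 48h post-siRNA transfection (100 nM). Scores: percent of plate negative-control median, then log-based robust z-score.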
row,Sequence,z-score
1,GCCAAAGCCGAAUGAGAGGTT against Rtn2,inactive: -1
2,GCACAAGGUUCAAAAAGGCTT against Ska3,inactive: -1.06
3,CGGAUCGGUGCGAGAAUAATT against Gpatch3,inactive: 0.61
4,GGAUGACUGCAUCUCUCUGTT against Mtfr1l,inactive: 0.825
5,GCACCUUCAGCUAUCUAACTT against Nepn,inactive: 0.478
6,CCUCUUCCAGAGAUGUAGCTT against Fos,inactive: 0.284
7,GGAUCUUGAGUUUACCAAATT against Uqcrc2,inactive: 0.379
8,GGAAAAAAAUUCUGAGUUCTT against Rab6a,inactive: -0.951
9,GGCUGUACCCAGCAAAAAGTT against Lca5,inactive: 1.35
10,GGAACUAUCGGCUCUUUCUTT against Zdhhc1,inactive: -2
11,GGACUACACAAUUUUCCCUTT against Proz,inactive: -1.61
12,CCUGGAACAUAGAUGUAUATT against Jmjd4,inactive: 0.484
13,GGAAAUCCUGCUGUAAGGATT against Vmn1r67,inactive: 0.381
14,GGUUCACCAUCAAGUCGGATT against Src,inactive: 0.431
15,GGAUCAAAUGGAAUGUUCUTT against Ccl25,inactive: 0.5
16,GGGUCUCCUCUUUCCGUAATT against Snx32,inactive: -0.356
17,GGAUGUGCCAAGAUUUGCCTT against Fzd3,inactive: 1.26
18,GGACACUUAGCAGCAAAGGTT against Lsm7,inactive: -0.924
19,CCUCAUAUGGAACCUGCAUTT against 8430429K09Rik,inactive: -0.798
20,GCUCUGAUGGUCUACUGCUTT against Rgs3,inactive: -0.347
21,GCCGAAUCUUCAAGCCUGUTT against Ssh3,inactive: 0.206
22,GGCCUUCUUCACCAUUGCUTT against Entpd6,inactive: -1.07
23,GGAGAAGUUCAGAUCUUUGTT against Tmem266,inactive: 0.914

row,Sequence,z-score
1,GCUUCUUACAGUUUGCCCATT against Vmn1r65,inactive: -0.859
2,CCAUAUUGAUCAGUUGAAGTT against Mapk14,inactive: -0.158
3,GGUGAAAAAUGCAUUGAAGTT against Olfr1043,inactive: -0.727
4,GGAGCAGCGACUCAACUUUTT against Stub1,inactive: 0.733
5,CGAUGGAGUCUGGUAUUCATT against Srpx,inactive: -1.3
6,CGAAAAUAAUGGGUUCGGUTT against Tbx5,inactive: 0.956
7,GGACUGGAAAAUAUCAAACTT against Spata5,active: 2.04
8,CGUAUGAAGGAAUUCCAUGTT against Tex37,inactive: 0.557
9,GCUCCAUUAUGCCAGACUATT against Madcam1,inactive: 0.8
10,GGGUUGAGCAACCGUUUCCTT against Tomm40,inactive: -0.285
11,GGAGAGUCGGAAUUUUUAUTT against Sgcg,inactive: 1.83
12,GGACUAGAGAAUGUUUCUATT against Rom1,inactive: 0.0116
13,GCAAGGUGACAUCAGAAGUTT against Flot2,inactive: -0.709
14,GCCAAUAUCUAUCUACUACTT against Vsig1,inactive: -0.231
15,GCAGACACUGUUCGGGAUUTT against Zfp367,inactive: -0.0298
16,GGAGUCGAUUACGUUUAUUTT against Sec14l1,inactive: -0.0533
17,GGAGUAUCUAACAUCUACUTT against Smarcc2,inactive: 1.33
18,GGAUGGUCCAUGUCACAAATT against Scara5,inactive: -1.21
19,GGAGUGCAUGACUCAGCUUTT against Olfr926,inactive: -1.54
20,GCAUCAAGAUUAAGGUUGUTT against Mybpc1,inactive: 0.0257
21,CCGAAAGAACAAACAAAGGTT against Mgarp,inactive: -0.21
22,GGACAUGGGCAAAAUGACCTT against Naga,inactive: -1.6
23,GGAAACCUGAUACUAACAATT against Afmid,inactive: -1.88

# Some of the entries so far, bar-delimited.
row | Sequence | z-score
4 | GGAGCAGCGACUCAACUUUTT against Stub1 | inactive: 0.733
5 | CGAUGGAGUCUGGUAUUCATT against Srpx | inactive: -1.3
6 | CGAAAAUAAUGGGUUCGGUTT against Tbx5 | inactive: 0.956
7 | GGACUGGAAAAUAUCAAACTT against Spata5 | active: 2.04
8 | CGUAUGAAGGAAUUCCAUGTT against Tex37 | inactive: 0.557

# Additional entries.

row,Sequence,z-score
1,CCGAAUUUGUAGGAAUCGATT against Cep78,inactive: -1.64
2,GGACUCAAGAGUGAUUUCUTT against Ncoa5,inactive: 1.27
3,GCAUUAUGGUAGAAGUGGCTT against Sppl2c,inactive: -1.02
4,GCUUCAUCUAAAGGAUAAGTT against Rcn2,inactive: -0.101
5,GGGACAAAUAAGAAAACCCTT against Ufc1,inactive: -0.989
6,GCUUUGAAAUCUGAAUCAGTT against Terf2,active: 2.06
7,GCUACUCGUUGUGAGAACUTT against Ccdc127,inactive: -0.722
8,GCUCCUAUCUACAGCUCUUTT against Samd4,inactive: 0.0647
9,GCGGCAUGGUUAAGAAUUATT against Chst11,inactive: 0.0702
10,GGUCAAACUUCAAUAGACATT against Zkscan6,active: 2.01
11,GGUAGCCAGAAAAAAAAAATT against Pkn3,inactive: 0.648
12,CCUGGUAUGCCAAACUUGATT against Ptpa,inactive: -0.115
13,GGACUUGCCUCCAGAAAAUTT against Tmem167,inactive: 0.413
14,GGCCAAGAGAAUCUAAAGATT against Strn4,inactive: -0.338
15,CGAGUGUUUGGACAACAAUTT against Ldlr,inactive: 0.391
16,UGCCGCUCGUGUUUCGGGATT against Hmx2,inactive: -1.39
17,CCAGCAAGCAAGAUUCCUGTT against Ola1,inactive: 0.0919
18,CGAUCAUCACCAGAACACCTT against Kcnt1,inactive: -0.695
19,CGACCAGAGUGGAUACCUGTT against Ocm,inactive: 1.98
20,CCAAUGUGAUCUUGAGCCATT against Tmem198b,inactive: -1.27
21,CCUCUUGUAUGUGUGGUUUTT against Cdc25b,inactive: 0.0873
22,GGGCAAGAAAGGUGUUUUGTT against Prdx5,inactive: 0.432
23,GCCUGUGGAAACUUUCCUGTT against Faap100,inactive: 0.142
